This note sets out measurements from paper PMC12871198.

These are yes or no findings as the source states them, for the method shown. Binding seen in cells or lysates may run through a third protein. A result given as binding can be weak or reduced; the word gives no strength. Sequences can lack the tags named with a protein.

For assay [1], the target named is T1, cdhr1a fused to a C-terminal FLAG tag (zebrafish) (UniProt Q6B3P0).
T1 sequence: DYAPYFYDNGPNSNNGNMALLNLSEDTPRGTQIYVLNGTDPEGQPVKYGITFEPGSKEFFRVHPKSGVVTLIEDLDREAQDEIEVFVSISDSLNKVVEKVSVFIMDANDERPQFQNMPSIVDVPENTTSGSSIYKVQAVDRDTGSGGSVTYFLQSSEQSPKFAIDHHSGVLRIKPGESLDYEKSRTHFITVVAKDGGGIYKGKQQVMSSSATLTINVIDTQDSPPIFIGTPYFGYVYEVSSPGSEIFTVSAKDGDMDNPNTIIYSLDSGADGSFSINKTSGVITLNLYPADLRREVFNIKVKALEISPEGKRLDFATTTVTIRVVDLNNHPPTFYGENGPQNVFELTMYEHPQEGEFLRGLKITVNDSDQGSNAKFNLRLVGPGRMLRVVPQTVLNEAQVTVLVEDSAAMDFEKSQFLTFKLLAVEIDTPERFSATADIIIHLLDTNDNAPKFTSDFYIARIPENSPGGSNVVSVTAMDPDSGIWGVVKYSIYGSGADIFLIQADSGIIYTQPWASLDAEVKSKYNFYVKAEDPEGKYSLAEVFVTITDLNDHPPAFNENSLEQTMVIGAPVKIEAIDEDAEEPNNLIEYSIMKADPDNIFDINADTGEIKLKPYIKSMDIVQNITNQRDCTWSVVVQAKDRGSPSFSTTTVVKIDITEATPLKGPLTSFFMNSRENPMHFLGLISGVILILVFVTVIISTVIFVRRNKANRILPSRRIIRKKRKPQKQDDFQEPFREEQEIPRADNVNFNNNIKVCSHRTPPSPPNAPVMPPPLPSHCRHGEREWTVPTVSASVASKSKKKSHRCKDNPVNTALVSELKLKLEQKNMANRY
Kind of assay: co-IP; HEK293 cells co-transfected with cdhr1a-FLAG and pcdh15b-MYC, 24 h; membrane protein extract; one sample on anti-FLAG magnetic beads, another on anti-MYC magnetic beads; blots for FLAG and MYC.

Assay [2] addresses pcdh15b fused to a C-terminal MYC tag (zebrafish). The description is as above.

Consider “pcdh15b fused to a C-terminal MYC tag (zebrafish)”, for which the binding entry in assay [1] is reported as “binds”.

B1: cdhr1a fused to a C-terminal FLAG tag (protein, UniProt Q6B3P0 26-857)
chain: T1 sequence
Take B1: the binding result in assay [2] is “binds”.
